PubChem BioAssay AID1259424 – University of Nebraska Medical Center, 2018
Screen: 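Seek colon cancer survival genes behaving like KSR1, using a six-gene signature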 (primary screen). Cell system: human HCT116 colon cancer cells. Knock-down reagent: siRNA pool against human genes, 50 nM. Measurement: 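Six signature mRNAs by branched-DNA multiplex assay, scaled to two housekeeping genes and non-targeting median, log2; matched to mean KSR1 knockdown profile by Pearson correlation and euclidean distance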. Reading the numbers: mean correlation with KSR1 profile and KSR1 correlation: higher = expression change more like KSR1 knockdown; mean distance from KSR1 profile: higher = expression change less like KSR1 knockdown.
This is an unselected part of about 14,000 deposited reagents. 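Higher correlation or smaller distance means closer resemblance to KSR1 loss; control wells, including KSR1 knockdowns, recur on many plates.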 The record does not give: the time to read-out.

gene	mean correlation with KSR1 profile	mean distance from KSR1 profile	KSR1 correlation, replicate 1	KSR1 correlation, replicate 2	KSR1 correlation, replicate 3
FCHSD2	-0.283	1.35	-0.721	-0.215	0.203
SLC17A3	-0.421	2.14	-0.181	-0.51	-0.44
DPP8	-0.00374	1.49	0.113	-0.351	0.034
ATP1A2	0.424	1.2	0.421	0.427	0.396
CD300C	-0.745	1.99	-0.624	-0.7	-0.946
AIPL1	0.411	1.22	0.576	0.549	0.17
TESMIN	0.596	1.12	0.505	0.606	0.724
CRYM	-0.587	3.08	-0.602	-0.566	-0.314
REEP5	0.399	1.98	0.301	0.296	0.584
SEC23A	-0.196	2.57	-0.115	-0.252	-0.208
CHAC1	0.0379	0.934	-0.00681	-0.462	0.0397
TLX1	0.115	1.35	0.499	0.521	-0.362
ADAMTS10	-0.826	2.22	-0.742	-0.912	-0.661
TRRAP	0.601	2.82	0.618	0.569	0.606
BTN2A2	0.104	1.28	0.093	0.0116	0.211
TPH1	-0.345	2.68	-0.0784	-0.577	-0.235
ZNF629	0.0445	2.73	0.0932	-0.0402	0.0384
CORO1A	0.347	2.13	0.286	0.338	0.238
SLC19A1	-0.109	1.43	-0.118	-0.254	0.157
HSPBAP1	0.401	1.88	0.452	0.767	-0.316
ZBTB24	-0.499	2.11	-0.367	-0.71	-0.26
ELMO3	0.362	2.42	0.365	0.561	0.198
PNPLA8	-0.379	1.14	-0.13	-0.232	-0.564
INTS6	0.136	6.11	0.142	0.064	0.0247
MEN1	0.675	0.966	0.677	0.378	0.532
ABCA8	-0.577	2.53	-0.543	-0.351	-0.698
DPF1	-0.497	1.76	-0.428	-0.514	-0.579
FEV	0.249	4.51	0.394	-0.0332	0.258
KCNN4	0.57	1.46	0.513	0.632	0.572
ERH	-0.166	2.08	-0.162	-0.308	-0.257
NDRG2	-0.259	1.49	-0.282	-0.791	0.375
TMEM47	-0.311	2.15	-0.33	-0.348	-0.259
CGGBP1	-0.0903	4.48	0.0828	-0.244	-0.0908
HLA-DPA1	-0.231	1.81	-0.405	-0.343	-0.176

Entries above whose gene name begins with T or t (5):
gene	mean correlation with KSR1 profile	mean distance from KSR1 profile	KSR1 correlation, replicate 1	KSR1 correlation, replicate 2	KSR1 correlation, replicate 3
TESMIN	0.596	1.12	0.505	0.606	0.724
TLX1	0.115	1.35	0.499	0.521	-0.362
TRRAP	0.601	2.82	0.618	0.569	0.606
TPH1	-0.345	2.68	-0.0784	-0.577	-0.235
TMEM47	-0.311	2.15	-0.33	-0.348	-0.259
